This test deals with T1, Flag-tagged NUPR1 (nuclear protein 1) (UniProt O60356).
T1 sequence: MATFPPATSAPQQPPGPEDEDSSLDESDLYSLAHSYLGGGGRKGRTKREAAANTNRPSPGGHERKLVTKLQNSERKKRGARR
Kind of test: affinity purification with mass spectrometry; anti-Flag Co-IP from lysates of Flag-tagged NUPR1-overexpressing cells, LC-MS/MS.

Sequences of proteins named here, by UniProt entry; tags and fusion partners are left off. Residues count along the entry.
UniProt P35869, residues 11-848: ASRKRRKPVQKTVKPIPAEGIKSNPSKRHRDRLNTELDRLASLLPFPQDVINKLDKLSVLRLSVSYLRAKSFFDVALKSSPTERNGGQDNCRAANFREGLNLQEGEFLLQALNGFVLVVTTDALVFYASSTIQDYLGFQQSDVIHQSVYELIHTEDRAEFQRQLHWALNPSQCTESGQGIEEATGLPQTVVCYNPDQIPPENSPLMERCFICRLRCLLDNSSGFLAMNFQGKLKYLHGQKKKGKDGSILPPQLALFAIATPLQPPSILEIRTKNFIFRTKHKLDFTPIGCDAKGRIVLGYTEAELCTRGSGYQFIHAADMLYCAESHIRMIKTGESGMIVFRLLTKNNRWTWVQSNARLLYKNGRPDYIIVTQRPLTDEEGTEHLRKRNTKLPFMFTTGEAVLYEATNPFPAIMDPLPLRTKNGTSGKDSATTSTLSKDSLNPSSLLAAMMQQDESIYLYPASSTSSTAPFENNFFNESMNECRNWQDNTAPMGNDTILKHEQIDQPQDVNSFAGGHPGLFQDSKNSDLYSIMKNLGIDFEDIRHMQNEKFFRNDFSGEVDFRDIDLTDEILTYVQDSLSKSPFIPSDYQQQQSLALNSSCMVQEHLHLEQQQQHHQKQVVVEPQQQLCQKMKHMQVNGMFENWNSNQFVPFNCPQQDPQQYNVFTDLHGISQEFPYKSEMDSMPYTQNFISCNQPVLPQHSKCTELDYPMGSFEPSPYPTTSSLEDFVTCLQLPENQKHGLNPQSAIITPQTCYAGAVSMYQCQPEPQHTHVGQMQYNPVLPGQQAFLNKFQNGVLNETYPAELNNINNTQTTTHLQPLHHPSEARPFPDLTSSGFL

These are yes or no findings as the source states them, for the method shown. Binding seen in cells or lysates may run through a third protein. These calls come from enrichment with a bait or labelling near it, and not all partners need be listed. Tags and fused reporters may be left off the sequences shown.

“aryl hydrocarbon receptor (AhR) (from UniProt P35869 11-848)”: the binding entry is “binds”.

Source of the values: article PMC9580158.
